We go through 1 substance from article PMC4695049.

By UniProt entry, the sequences of proteins in these tests, tags left out.
UniProt Q9GZV5: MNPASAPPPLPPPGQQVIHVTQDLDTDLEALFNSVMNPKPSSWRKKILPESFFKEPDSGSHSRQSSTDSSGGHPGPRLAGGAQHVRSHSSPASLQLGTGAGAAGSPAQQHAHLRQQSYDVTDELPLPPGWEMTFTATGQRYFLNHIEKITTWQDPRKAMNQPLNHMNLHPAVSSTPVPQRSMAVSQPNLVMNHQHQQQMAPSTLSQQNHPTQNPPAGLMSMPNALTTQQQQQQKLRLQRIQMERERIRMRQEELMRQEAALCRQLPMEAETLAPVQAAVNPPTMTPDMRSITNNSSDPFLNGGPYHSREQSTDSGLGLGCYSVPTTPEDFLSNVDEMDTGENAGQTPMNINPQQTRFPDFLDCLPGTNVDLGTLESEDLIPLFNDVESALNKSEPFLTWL
UniProt Q13950: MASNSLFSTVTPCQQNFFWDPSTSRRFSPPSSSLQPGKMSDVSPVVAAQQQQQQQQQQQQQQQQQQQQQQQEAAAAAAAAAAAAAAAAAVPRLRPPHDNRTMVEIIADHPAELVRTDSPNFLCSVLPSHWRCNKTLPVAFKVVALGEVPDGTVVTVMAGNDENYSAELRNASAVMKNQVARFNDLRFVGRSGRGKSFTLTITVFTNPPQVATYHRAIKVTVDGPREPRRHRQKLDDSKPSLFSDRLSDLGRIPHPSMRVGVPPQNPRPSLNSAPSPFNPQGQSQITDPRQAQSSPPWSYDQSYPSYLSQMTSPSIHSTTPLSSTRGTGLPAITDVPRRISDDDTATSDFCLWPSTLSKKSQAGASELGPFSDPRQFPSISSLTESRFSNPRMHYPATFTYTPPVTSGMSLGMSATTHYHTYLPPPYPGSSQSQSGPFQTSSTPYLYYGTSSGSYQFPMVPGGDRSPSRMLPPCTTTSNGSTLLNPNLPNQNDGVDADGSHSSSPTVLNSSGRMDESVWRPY

These are yes or no findings as the source states them, for the method shown. In cells and extracts the contact can be indirect. Some entries that bind do so weakly or less than the wild type.

In experiment [1] the target is TAZ (transcriptional co-activator with PDZ-binding motif) (human (endogenous in MCF7)) (UniProt Q9GZV5). In words: co-IP; as a1, but cells nutrient deprived for 16 hr and not treated with TGFβ (t = 0).
Experiment [2] shares this target. Description: co-IP; nuclear lysates (400 ug, NucBuster) of MCF7-RUNX2 Tet.OFF cells without doxycycline, treated with 2 ng/mL TGFβ for 4 and 24 hr; IP with YAP/TAZ antibody and Protein G-Sepharose in Co-IP buffer (50 mM Tris pH 7.5, 150 mM NaCl, 1 mM EDTA, 1 mM EGTA, 1% Triton X-100, 0.5% NP-40); blots probed for RUNX2 and TAZ; rabbit IgG and beads alone as controls.

As to “Flag-tagged RUNX2 (from UniProt Q13950 1-521)”, the binding entry is on record as “no binding (condition: cells without TGFβ treatment)” in experiment [1] and “binds” in experiment [2].
